The values that follow come from publication PMC2671563 (PLoS Biology, 2009).

By UniProt entry, the sequences of proteins in these tests, tags left out. Where a name states a change or a piece, a line headed by the entry shows the natural chain unless it says otherwise.
UniProt O00206: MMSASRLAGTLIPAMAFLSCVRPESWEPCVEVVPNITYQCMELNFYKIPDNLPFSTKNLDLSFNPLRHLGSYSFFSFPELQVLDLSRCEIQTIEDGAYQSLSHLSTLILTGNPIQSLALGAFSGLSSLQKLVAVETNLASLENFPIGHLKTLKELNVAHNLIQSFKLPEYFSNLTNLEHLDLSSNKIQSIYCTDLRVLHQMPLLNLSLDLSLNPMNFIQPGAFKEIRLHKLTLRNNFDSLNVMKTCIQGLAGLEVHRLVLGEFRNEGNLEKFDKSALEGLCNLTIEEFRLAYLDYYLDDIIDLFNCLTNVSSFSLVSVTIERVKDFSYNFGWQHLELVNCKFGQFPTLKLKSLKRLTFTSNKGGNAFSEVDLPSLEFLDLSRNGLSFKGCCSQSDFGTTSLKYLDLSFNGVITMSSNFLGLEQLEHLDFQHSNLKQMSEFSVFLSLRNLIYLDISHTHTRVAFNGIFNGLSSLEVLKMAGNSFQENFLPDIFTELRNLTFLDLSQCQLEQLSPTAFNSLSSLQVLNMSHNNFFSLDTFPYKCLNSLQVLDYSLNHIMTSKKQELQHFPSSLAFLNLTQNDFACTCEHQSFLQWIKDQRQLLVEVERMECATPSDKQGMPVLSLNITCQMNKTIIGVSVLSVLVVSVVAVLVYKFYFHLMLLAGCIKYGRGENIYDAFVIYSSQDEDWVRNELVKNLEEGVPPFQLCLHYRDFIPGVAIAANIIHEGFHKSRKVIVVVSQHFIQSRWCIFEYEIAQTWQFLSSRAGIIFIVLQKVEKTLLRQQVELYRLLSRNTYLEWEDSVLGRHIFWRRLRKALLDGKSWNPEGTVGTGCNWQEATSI

The target in assay [1] is T1, human TLR4/MD-2 complex (human, UniProt O00206 24-631; Q9Y6Y9 19-160).
T1 construct: Toll-like receptor 4, human; MD-2, human; Soluble recombinant complex; also called hTLR4/MD-2; hTLR4/MD2; source: bought: R&D Systems (carrier-free recombinant)
The assay is described as follows: SPR; S100 proteins injected (100 nM, or a range of concentrations; 30 ul/min) over human TLR4/MD2 immobilised by amine coupling (~3,000 RU); HBS-P pH 7.4 with 1 mM Ca2+ and 10 uM Zn2+; fit to a 1:1 model with mass transfer; half-maximal binding from responses at late association (apparent); both ….

In assay [2] the target is T1, human TLR4/MD-2 complex. Briefly: SPR; competition: 100 nM hS100A9 injected (3 min, 30 ul/min) together with soluble hTLR4/MD2 over immobilised hTLR4/MD2 or RAGE; HBS-P with 10 uM Zn2+ and 1 mM Ca2+; responses at late association; both purified. Background: SPR reads the build-up and loss of mass on a sensor chip optically.

Results are given in words; binding and its absence hold for the method and conditions named. Some entries that bind do so weakly or less than the wild type.

B1: human S100A8 (protein, UniProt P05109 1-93)
chain: MLTELEKALNSIIDVYHKYSLIKGNFHAVYRDDLKKLLETECPQYIRKKGADVWFKELDINTDGAVNFQEFLILVIKMGVAAHKKSHEESHKE
With B1, in the assay with human TLR4/MD-2 complex [1], the binding entry is on record as “binds weakly”.

B2: human S100A9 (natural protein, UniProt P06702 1-114, looked up)
chain: MTCKMSQLERNIETIINTFHQYSVKLGHPDTLNQGEFKELVRKDLQNFLKKENKNEKVIEHIMEDLDTNADKQLSFEEFIMLMARLTWASHEKMHEGDEGPGHHHKPGLGEGTP
notes: S100A9, human; called homodimeric; also called hS100A9; homodimeric S100A9; source: either produced recombinantly in Escherichia coli or purified from granulocytes
With B2, in the assay with human TLR4/MD-2 complex [2], the binding result is “binds”.
